According to patent US20130218474A1, “Benchmarks for Normal Cell Identification” (priority 2012, published 2013):
pIC50: −log10 of the molar value. At least one compound was matched to its structure with a doubt left.

The chains behind the UniProt entries cited, without tags or fusion partners. Where a name states a change or a piece, a line headed by the entry shows the natural chain unless it says otherwise.
UniProt P26358: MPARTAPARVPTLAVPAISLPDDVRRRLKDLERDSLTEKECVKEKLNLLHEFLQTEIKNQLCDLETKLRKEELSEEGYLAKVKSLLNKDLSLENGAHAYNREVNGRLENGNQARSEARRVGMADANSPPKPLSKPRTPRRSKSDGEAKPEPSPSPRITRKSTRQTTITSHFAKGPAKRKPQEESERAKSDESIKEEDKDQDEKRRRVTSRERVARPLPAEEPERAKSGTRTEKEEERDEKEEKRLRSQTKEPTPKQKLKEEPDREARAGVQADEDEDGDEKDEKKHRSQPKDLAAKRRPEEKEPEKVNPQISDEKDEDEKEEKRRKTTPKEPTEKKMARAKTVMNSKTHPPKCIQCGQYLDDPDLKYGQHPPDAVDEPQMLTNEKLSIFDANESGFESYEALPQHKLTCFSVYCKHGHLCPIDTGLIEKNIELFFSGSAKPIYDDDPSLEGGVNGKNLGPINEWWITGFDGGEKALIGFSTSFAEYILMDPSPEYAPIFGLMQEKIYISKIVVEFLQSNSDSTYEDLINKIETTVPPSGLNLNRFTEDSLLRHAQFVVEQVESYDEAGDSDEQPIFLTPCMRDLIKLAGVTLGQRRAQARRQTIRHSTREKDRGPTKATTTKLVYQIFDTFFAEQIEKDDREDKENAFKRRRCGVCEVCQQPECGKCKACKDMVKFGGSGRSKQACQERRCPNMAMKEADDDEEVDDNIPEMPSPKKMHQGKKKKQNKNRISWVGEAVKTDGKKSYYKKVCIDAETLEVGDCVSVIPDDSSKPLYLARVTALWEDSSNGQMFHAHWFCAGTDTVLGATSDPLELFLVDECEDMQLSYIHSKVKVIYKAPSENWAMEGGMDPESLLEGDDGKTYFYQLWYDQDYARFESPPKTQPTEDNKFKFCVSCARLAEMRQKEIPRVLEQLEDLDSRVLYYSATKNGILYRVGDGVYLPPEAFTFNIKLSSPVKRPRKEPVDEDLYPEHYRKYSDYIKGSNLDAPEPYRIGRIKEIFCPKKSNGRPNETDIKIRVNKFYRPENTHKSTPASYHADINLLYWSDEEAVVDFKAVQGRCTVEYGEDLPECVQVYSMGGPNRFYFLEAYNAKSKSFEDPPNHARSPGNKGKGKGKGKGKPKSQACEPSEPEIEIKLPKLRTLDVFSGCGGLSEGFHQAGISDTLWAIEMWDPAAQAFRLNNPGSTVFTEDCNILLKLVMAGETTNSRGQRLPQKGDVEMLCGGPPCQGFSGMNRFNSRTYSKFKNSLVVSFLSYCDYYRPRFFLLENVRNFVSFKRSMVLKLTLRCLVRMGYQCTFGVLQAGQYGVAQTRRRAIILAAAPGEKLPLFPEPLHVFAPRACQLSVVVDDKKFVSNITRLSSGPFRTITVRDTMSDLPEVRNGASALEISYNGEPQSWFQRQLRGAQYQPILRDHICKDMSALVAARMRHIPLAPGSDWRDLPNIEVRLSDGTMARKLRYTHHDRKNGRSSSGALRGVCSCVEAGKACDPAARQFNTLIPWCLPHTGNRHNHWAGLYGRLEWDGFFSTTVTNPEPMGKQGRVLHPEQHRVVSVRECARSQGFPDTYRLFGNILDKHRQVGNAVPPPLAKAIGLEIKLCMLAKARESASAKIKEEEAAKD

Experiments:
[1] = system: immune cell sub-populations within PBMCs; assay: SCNP assay of healthy donor PBMC sub-populations; format: cell-based, human; conditions: R848 5 μg/ml, 15 min
[2] = system: peripheral and bone marrow blasts; conditions: 525 mg and 700 mg twice daily; decreases in peripheral and bone marrow blasts; cited from earlier work
[3] = system: PBMCs (monos)/GM-CSF/pSTAT5; assay: PBMCs (monos)/GM-CSF/pSTAT5; format: cell-based
[4] = biological target: T1, DNMT1 in AML cell lines (KG-1, THP-1) (Homo sapiens, UniProt P26358); conditions: cited from earlier work
T1 construct: endogenous in cells; host or cells: KG-1, THP-1 (AML cell lines)

CCOCc1nc2c(N)nc3ccccc3c2n1CC(C)(C)O [R848, Resiquimod]
cell sub-populations in which pErk and pNFκB were induced [1]: only in B cells and monocytes

COc1cc2c(N3CCN(C(=O)Nc4ccc(OC(C)C)cc4)CC3)ncnc2cc1OCCCN1CCCCC1 [Tandutinib]
evaluable FLT3-ITD patients with evidence of antileukemic activity [2]: for assessment of tandutinib's antileukemic effect. Two of the 5

N#CCNC(=O)c1ccc(-c2ccnc(Nc3ccc(N4CCOCC4)cc3)n2)cc1 [CYT387]
pIC50 [3]: 5.96 | IC90 [3]: ~333 nM

Nc1ncn([C@H]2C[C@H](O)[C@@H](CO)O2)c(=O)n1 [Decitabine]
concentration that can inhibit DNMT1 [4]: (KG-1, THP-1), decitabine can inhibit DNMT1 at 0.1 μM Cmax
